Results as given in patent US11666608B2 (priority 2020, dated 2023).
At least one compound was matched to its structure with a doubt left.

Tested on: mouse model with an immune disease caused by a protein contaminated by LPS
Experiment: Mouse model with immune disease caused by a protein contaminated by LPS (LPS + OVA)
Assay type: in vivo
Settings: dexamethasone 20 μg intraperitoneally

Q: For `C[C@@H]1C[C@H]2[C@@H]3CCC4=CC(=O)C=C[C@]4(C)[C@@]3(F)[C@@H](O)C[C@]2(C)[C@@]1(O)C(=O)CO` [dexamethasone], which “number of neutrophils in BALF” value (vesicles 100 ng intranasally for 3 weeks, FIG. 15B) is on record?
A: significantly reduced

Q: What about the “infiltration of inflammatory cells in lung tissue (H&E)” value (vesicles 100 ng intranasally for 3 weeks, FIG. 15C) of the same compound?
A: significantly inhibited

Q: And the “total number of inflammatory cells in BALF” value (vesicles 100 ng intranasally with 50 μg OVA for 3 weeks, FIG. 15A)?
A: significantly reduced
